No constants are given. Whether binding was seen depends on the method and setting. Binding seen in cells or lysates may run through a third protein. Some entries that bind do so weakly or less than the wild type. Where a sequence is shown, tags or fusion partners need not be part of it.
Assays:
Assay in all cases: FRET or BRET; single-molecule FRET between the two protomers; SNAP-tags labelled with DY-549P1 and Alexa-647 on live cells; receptors from IGEPAL lysate held on a PEG surface by biotinylated FLAG antibody; 10 mM EDTA, 10 mM Ca2+ or 10 mM Ca2+ + 5 mM L-Trp; room temperature, pH 7.35
[1] = molecular target: CaSR construct with an N-terminal SNAP-tag and a C-terminal FLAG-tag (mouse) (UniProt Q9QY96)
[2] = molecular target: SNAP-tagged CaSR C129S (mouse) (UniProt Q9QY96)
[3] = molecular target: SNAP-tagged CaSR C131G (mouse) (UniProt Q9QY96)

B1: CaSR construct with an N-terminal SNAP-tag and a C-terminal FLAG-tag (receptor, UniProt Q9QY96 20-1079)
chain: YGPDQRAQKKGDIILGGLFPIHFGVAAKDQDLKSRPESVECIRYNFRGFRWLQAMIFAIEEINSSPALLPNMTLGYRIFDTCNTVSKALEATLSFVAQNKIDSLNLDEFCNCSEHIPSTIAVVGATGSGVSTAVANLLGLFYIPQVSYASSSRLLSNKNQFKSFLRTIPNDEHQATAMADIIEYFRWNWVGTIAADDDYGRPGIEKFREEAEERDICIDFSELISQYSDEEEIQQVVEVIQNSTAKVIVVFSSGPDLEPLIKEIVRRNITGRIWLASEAWASSSLIAMPEYFHVVGGTIGFGLKAGQIPGFREFLQKVHPRKSVHNGFAKEFWEETFNCHLQDGAKGPLPVDTFVRSHEEGGNRLLNSSTAFRPLCTGDENINSVETPYMDYEHLRISYNVYLAVYSIAHALQDIYTCLPGRGLFTNGSCADIKKVEAWQVLKHLRHLNFTNNMGEQVTFDECGDLVGNYSIINWHLSPEDGSIVFKEVGYYNVYAKKGERLFINEGKILWSGFSREVPFSNCSRDCQAGTRKGIIEGEPTCCFECVECPDGEYSGETDASACDKCPDDFWSNENHTSCIAKEIEFLAWTEPFGIALTLFAVLGIFLTAFVLGVFIKFRNTPIVKATNRELSYLLLFSLLCCFSSSLFFIGEPQDWTCRLRQPAFGISFVLCISCILVKTNRVLLVFEAKIPTSFHRKWWGLNLQFLLVFLCTFMQIVICIIWLYTAPPSSYRNHELEDEIIFITCHEGSLMALGSLIGYTCLLAAICFFFAFKSRKLPENFNEAKFITFSMLIFFIVWISFIPAYASTYGKFVSAVEVIAILAASFGLLACIFFNKVYIILFKPSRNTIEEVRSSTAAHAFKVAARATLRRPNISRKRSSSLGGSTGSIPSSSISSKSNSEDRFPQPERQKQQQPLALTQQEQQQQPLTLQPQQQQQPQQPRCKQKVIFGSGTVTFSLSFDEPQKNAMAHRNSMRQNSLEAQKSNDTLNRHQALLPLQCAEADSEMTIQETGLQGPMVGDHQPEIESPDEMSPALVMSTSRSFVISGGGSSVTENILHS
modifications: SNAP-tag labelled with benzylguanine DY-549P1 or benzylguanine Alexa-647
binding [1]: binds

B2: SNAP-tagged CaSR C129S (receptor, UniProt Q9QY96 20-1079)
chain: YGPDQRAQKKGDIILGGLFPIHFGVAAKDQDLKSRPESVECIRYNFRGFRWLQAMIFAIEEINSSPALLPNMTLGYRIFDTCNTVSKALEATLSFVAQNKIDSLNLDEFSNCSEHIPSTIAVVGATGSGVSTAVANLLGLFYIPQVSYASSSRLLSNKNQFKSFLRTIPNDEHQATAMADIIEYFRWNWVGTIAADDDYGRPGIEKFREEAEERDICIDFSELISQYSDEEEIQQVVEVIQNSTAKVIVVFSSGPDLEPLIKEIVRRNITGRIWLASEAWASSSLIAMPEYFHVVGGTIGFGLKAGQIPGFREFLQKVHPRKSVHNGFAKEFWEETFNCHLQDGAKGPLPVDTFVRSHEEGGNRLLNSSTAFRPLCTGDENINSVETPYMDYEHLRISYNVYLAVYSIAHALQDIYTCLPGRGLFTNGSCADIKKVEAWQVLKHLRHLNFTNNMGEQVTFDECGDLVGNYSIINWHLSPEDGSIVFKEVGYYNVYAKKGERLFINEGKILWSGFSREVPFSNCSRDCQAGTRKGIIEGEPTCCFECVECPDGEYSGETDASACDKCPDDFWSNENHTSCIAKEIEFLAWTEPFGIALTLFAVLGIFLTAFVLGVFIKFRNTPIVKATNRELSYLLLFSLLCCFSSSLFFIGEPQDWTCRLRQPAFGISFVLCISCILVKTNRVLLVFEAKIPTSFHRKWWGLNLQFLLVFLCTFMQIVICIIWLYTAPPSSYRNHELEDEIIFITCHEGSLMALGSLIGYTCLLAAICFFFAFKSRKLPENFNEAKFITFSMLIFFIVWISFIPAYASTYGKFVSAVEVIAILAASFGLLACIFFNKVYIILFKPSRNTIEEVRSSTAAHAFKVAARATLRRPNISRKRSSSLGGSTGSIPSSSISSKSNSEDRFPQPERQKQQQPLALTQQEQQQQPLTLQPQQQQQPQQPRCKQKVIFGSGTVTFSLSFDEPQKNAMAHRNSMRQNSLEAQKSNDTLNRHQALLPLQCAEADSEMTIQETGLQGPMVGDHQPEIESPDEMSPALVMSTSRSFVISGGGSSVTENILHS
modifications: SNAP-tag labelled with benzylguanine DY-549P1 or benzylguanine Alexa-647
binding [2]: binds

B3: SNAP-tagged CaSR C131G (receptor, UniProt Q9QY96 20-1079)
chain: YGPDQRAQKKGDIILGGLFPIHFGVAAKDQDLKSRPESVECIRYNFRGFRWLQAMIFAIEEINSSPALLPNMTLGYRIFDTCNTVSKALEATLSFVAQNKIDSLNLDEFCNGSEHIPSTIAVVGATGSGVSTAVANLLGLFYIPQVSYASSSRLLSNKNQFKSFLRTIPNDEHQATAMADIIEYFRWNWVGTIAADDDYGRPGIEKFREEAEERDICIDFSELISQYSDEEEIQQVVEVIQNSTAKVIVVFSSGPDLEPLIKEIVRRNITGRIWLASEAWASSSLIAMPEYFHVVGGTIGFGLKAGQIPGFREFLQKVHPRKSVHNGFAKEFWEETFNCHLQDGAKGPLPVDTFVRSHEEGGNRLLNSSTAFRPLCTGDENINSVETPYMDYEHLRISYNVYLAVYSIAHALQDIYTCLPGRGLFTNGSCADIKKVEAWQVLKHLRHLNFTNNMGEQVTFDECGDLVGNYSIINWHLSPEDGSIVFKEVGYYNVYAKKGERLFINEGKILWSGFSREVPFSNCSRDCQAGTRKGIIEGEPTCCFECVECPDGEYSGETDASACDKCPDDFWSNENHTSCIAKEIEFLAWTEPFGIALTLFAVLGIFLTAFVLGVFIKFRNTPIVKATNRELSYLLLFSLLCCFSSSLFFIGEPQDWTCRLRQPAFGISFVLCISCILVKTNRVLLVFEAKIPTSFHRKWWGLNLQFLLVFLCTFMQIVICIIWLYTAPPSSYRNHELEDEIIFITCHEGSLMALGSLIGYTCLLAAICFFFAFKSRKLPENFNEAKFITFSMLIFFIVWISFIPAYASTYGKFVSAVEVIAILAASFGLLACIFFNKVYIILFKPSRNTIEEVRSSTAAHAFKVAARATLRRPNISRKRSSSLGGSTGSIPSSSISSKSNSEDRFPQPERQKQQQPLALTQQEQQQQPLTLQPQQQQQPQQPRCKQKVIFGSGTVTFSLSFDEPQKNAMAHRNSMRQNSLEAQKSNDTLNRHQALLPLQCAEADSEMTIQETGLQGPMVGDHQPEIESPDEMSPALVMSTSRSFVISGGGSSVTENILHS
modifications: SNAP-tag labelled with benzylguanine DY-549P1 or benzylguanine Alexa-647
binding [3]: binds
